Measurements as given in publication PMC10931229.
Results are given in words; binding and its absence hold for the method and conditions named. Binding seen in cells or lysates may run through a third protein. Some results given as binding are weak or reduced against the parent protein; the word gives no strength. Sequences can lack the tags named with a protein.

T1: AUP1-V5 (human) (UniProt Q9Y679)
T1 sequence: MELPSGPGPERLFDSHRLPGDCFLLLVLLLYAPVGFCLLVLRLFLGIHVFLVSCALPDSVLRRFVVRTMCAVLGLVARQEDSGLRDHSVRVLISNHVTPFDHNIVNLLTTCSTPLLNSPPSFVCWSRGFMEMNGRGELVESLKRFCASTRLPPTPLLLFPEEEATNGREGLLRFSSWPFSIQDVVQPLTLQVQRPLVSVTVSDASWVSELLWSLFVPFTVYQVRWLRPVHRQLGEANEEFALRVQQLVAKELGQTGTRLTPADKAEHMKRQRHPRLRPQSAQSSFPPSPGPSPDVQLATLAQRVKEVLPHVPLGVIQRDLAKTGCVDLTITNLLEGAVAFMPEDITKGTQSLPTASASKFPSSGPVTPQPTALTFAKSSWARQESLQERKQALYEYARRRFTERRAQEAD

T2: endogenous AUP1 of HEK cells (human (endogenous in HEK)) (UniProt Q9Y679)
T2 sequence: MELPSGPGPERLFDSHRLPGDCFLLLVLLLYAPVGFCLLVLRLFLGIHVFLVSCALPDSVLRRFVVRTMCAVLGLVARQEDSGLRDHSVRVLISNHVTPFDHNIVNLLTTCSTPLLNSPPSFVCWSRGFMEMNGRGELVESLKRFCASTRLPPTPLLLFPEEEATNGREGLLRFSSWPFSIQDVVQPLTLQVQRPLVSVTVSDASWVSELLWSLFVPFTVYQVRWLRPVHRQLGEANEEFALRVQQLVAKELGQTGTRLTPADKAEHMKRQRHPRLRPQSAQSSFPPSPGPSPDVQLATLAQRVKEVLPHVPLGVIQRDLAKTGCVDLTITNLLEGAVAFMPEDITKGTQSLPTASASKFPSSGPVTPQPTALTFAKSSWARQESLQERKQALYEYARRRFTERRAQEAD


How the values were obtained:
[1] = target: T1, AUP1-V5 (human); assay: co-IP; OKP cells transfected with the Myc-tagged cotransporter and AUP1-V5; lysates precipitated with anti-V5 and protein G beads, blot with anti-Myc
[2] = target: T2, endogenous AUP1 of HEK cells (human (endogenous in HEK)); assay: co-IP; HEK cells expressing Myc-NKCC2; endogenous AUP1 precipitated with anti-AUP1, blot with anti-Myc
[3] = target: T1, AUP1-V5 (human); assay: co-IP; HEK cells transfected with Myc-NKCC2 and AUP1-V5; lysates precipitated with anti-V5 and protein G beads, blot with anti-Myc

Row | Binder | binding [1] | binding [2] | binding [3]
1 | Myc-NKCC2 (protein, UniProt P55014 1-1095) MSVSIPSNSVPSSASRFQVHVINEGHGSAAAVGDSADPPHYEETSFGDEAQNRLRISFRPGNQECYDNFLQTGETAKTDTTFHAYDSHTNTYYLQTFGHNTMDAVPKIEYYRNTGSVSGPKVNRPSLLEIHEQLAKNVTVAPGSADRVANGDGMPGDEQAENKEEDMTGVVKFGWVKGVLVRCMLNIWGVMLFIRLSWIVGEAGIGLGVLIILLSTMVTSITGLSTSAIATNGFVRGGGAYYLISRSLGPEFGGSIGLIFAFANAVAVAMYVVGFAETVVDLLKESDSMMVDPTNDIRIIGSITVVILLGISVAGMEWEAKAQVILLVILLIAIANFFIGTVIPSNNEKKSRGFFNYQASIFAENFGPSFTKGEGFFSVFAIFFPAATGILAGANISGDLEDPQDAIPRGTMLAIFITTVAYIGVAICVAACVVRDATGSMNDTIVSGMNCNGSAACGLGYDFSRCQHEPCQYGLMNNFQVMSMVSGFGPLITAGIFSATLSSALASLVSAPKVFQALCKDNIFKGLQFFAKGYGKNNEPLRGYFLTFVIAMAFILIAELNVIAPIISNFFLASYALINFSCFHASYAKSPGWRPAYGIYNMWVSLFGAILCCAVMFVINWWAAVITYVIELFLYIYVTYKKPDVNWGSSTQALSYVSALDNALELTTVEDHVKNFRPQCIVLTGGPMTRPALLDITHAFTKNSGLCICCEVFVGPRKLCVKEMNSGMAKKQAWLIKNKIKAFYAAVAADCFRDGVRSLLQASGLGRMKPNTLVIGYKKNWRKAPLSELENYVGIIHDAFDFEIGVVIVRISQGFDISPVLQVQDELEKLEQERLALEAAIKDNECEEGKGGIRGLFKKAGKLNITKPAPKKDGNISSIQSMHVGEFNQKLVEASAQFKKKQGKGTIDVWWLFDDGGLTLLIPYILTLRKKWKDCKLRIYVGGKITRIEEEKISMASLLSKFRIKFADIHIIGDINIKPNKESWKVFEEMIEPYRLHESHKDLTTAEKLKRESPWKITDAELEAVKEKSYRQVRLNELLQEHSRAANLIVLSLPVARKGSISDLLYMAWLEILTKNLPPVLLVRGNHKNVLTFYS | binds | binds | binds
2 | Myc-NCC (protein, UniProt P55017 1-1021) MAELPTTETPGDATLCSGRFTISTLLSSDEPSPPAAYDSSHPSHLTHSSTFCMRTFGYNTIDVVPTYEHYANSTQPGEPRKVRPTLADLHSFLKQEGRHLHALAFDSRPSHEMTDGLVEGEAGTSSEKNPEEPVRFGWVKGVMIRCMLNIWGVILYLRLPWITAQAGIVLTWIIILLSVTVTSITGLSISAISTNGKVKSGGTYFLISRSLGPELGGSIGLIFAFANAVGVAMHTVGFAETVRDLLQEYGAPIVDPINDIRIIAVVSVTVLLAISLAGMEWESKAQVLFFLVIMVSFANYLVGTLIPPSEDKASKGFFSYRADIFVQNLVPDWRGPDGTFFGMFSIFFPSATGILAGANISGDLKDPAIAIPKGTLMAIFWTTISYLAISATIGSCVVRDASGVLNDTVTPGWGACEGLACSYGWNFTECTQQHSCHYGLINYYQTMSMVSGFAPLITAGIFGATLSSALACLVSAAKVFQCLCEDQLYPLIGFFGKGYGKNKEPVRGYLLAYAIAVAFIIIAELNTIAPIISNFFLCSYALINFSCFHASITNSPGWRPSFQYYNKWAALFGAIISVVIMFLLTWWAALIAIGVVLFLLLYVIYKKPEVNWGSSVQAGSYNLALSYSVGLNEVEDHIKNYRPQCLVLTGPPNFRPALVDFVGTFTRNLSLMICGHVLIGPHKQRMPELQLIANGHTKWLNKRKIKAFYSDVIAEDLRRGVQILMQAAGLGRMKPNILVVGFKKNWQSAHPATVEDYIGILHDAFDFNYGVCVMRMREGLNVSKMMQAHINPVFDPAEDGKEASARVDPKALVKEEQATTIFQSEQGKKTIDIYWLFDDGGLTLLIPYLLGRKRRWSKCKIRVFVGGQINRMDQERKAIISLLSKFRLGFHEVHILPDINQNPRAEHTKRFEDMIAPFRLNDGFKDEATVNEMRRDCPWKISDEEITKNRVKSLRQVRLNEIVLDYSRDAALIVITLPIGRKGKCPSSLYMAWLETLSQDLRPPVILIRGNQENVLTFYCQ | binds | – | –
